No constants are given. Whether binding was seen depends on the method and setting. Binding can be weak; no strength is given.
Target: VvMYC1 fused to the GAL4 DNA Binding Domain (Vitis vinifera (grape)) (UniProt B7SNG3)
Test: two-hybrid; yeast AH109; VvMYB5b^R or VvMYB5b^L fused to GAL4 AD, VvMYC1 fused to GAL4 DBD; selection on SD-Trp-Leu-; LacZ activation read as beta-galactosidase activity

binding: binds
Substance: VvMYB5b^R (native VvMYB5b) fused to the GAL4 Activation Domain (from UniProt Q58QD0)

— article PMC3240579
